# Experimental data from PubChem BioAssay AID1487 (National Center for Advancing Translational Sciences (NCATS), 2009).
# The other results are listed elsewhere or left out. These are further read-outs of the screen, such as a control signal, another cell line or another target. No call is given for them. The list favours compounds with an active or inconclusive main result. Words in brackets tell the shape of the fitted curve; partial curves, single points and poor fits give uncertain potencies.
# Assay: qHTS Assay for Modulators of Lamin A Splicing
# Settings: HeLa LMNA splicing GFP/RFP minigene ratio, 48 h
# Procedure, shortened: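 S3 HeLa cells stably expressing lamin A-EGFP splicing minigene plus DsRed2, 600 cells/well, 48 h compound exposure at 37C. Laser-scanning cytometry; analysed as GFP (500-530 nm)/RFP (575-640 nm) total intensity ratio; 0.5% DMSO vehicle.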
# [1] = measured here: RFP viability control channel
# [2] = measured here: GFP splicing reporter channel
structure (smiles),measurement,setting,value
COC(=O)c1ccccc1NC(=O)COC(=O)c1ccccc1N=Nc1ccc(N(C)C)cc1,AC50,[1],"12.6 µM [rising, single point]"
COC(=O)c1cc2ccsc2n1Cc1nc(-c2ccc(OC)cc2)oc1C,AC50,[1],"25.1 µM [rising, single point]"
CCN(CC)S(=O)(=O)c1ccc(NC(=O)C2c3ccccc3Oc3ccccc32)cc1,AC50,[1],"0.316 µM [rising, full curve, poor fit]"
CN(C)c1ccc(N=Cc2nc(-c3ccccc3)oc2O)cc1,AC50,[2],"28.2 µM [falling, single point]"
same,AC50,[1],"12.6 µM [falling, single point]"
CN(C(=O)CSc1nc2c(c(=O)[nH]1)CCC2)c1ccccc1,AC50,[1],"12.6 µM [rising, single point]"
O=C(CCc1ccccc1)NC(=S)Nc1ccc2c(c1)C(=O)OC2,AC50,[2],"0.00891 µM [falling, full curve, poor fit]"
COc1ccc(-n2c(N)c(C(=O)NCc3ccco3)c3nc4ccccc4nc32)cc1,AC50,[1],"4.47 µM [rising, full curve, poor fit]"
Cc1ccc(-n2c(C)cc(/C=N/NC(=O)CN(c3ccc(C)cc3C)S(C)(=O)=O)c2C)cc1,AC50,[2],"15.8 µM [rising, partial curve, poor fit]"
same,AC50,[1],"2.51 µM [rising, partial curve]"
CCN(CCn1cccn1)C(=O)CCc1nnc(CCc2ccccc2OC)o1,AC50,[1],"0.0126 µM [falling, full curve, poor fit]"
CCCCn1c(SCc2nc3ccccc3s2)nc2cc(S(N)(=O)=O)ccc21,AC50,[1],"31.6 µM [rising, single point]"
Cc1c(-c2ccccc2)nc2ccccc2c1C(=O)OCC(=O)Nc1ncc(C(F)(F)F)cc1Cl,AC50,[2],"17.8 µM [rising, single point]"
COc1ccccc1CNS(=O)(=O)c1ccc2c(c1)CC(C)N2C(=O)C1CCC1 (centres undefined),AC50,[2],"0.1 µM [falling, full curve, poor fit]"
same,AC50,[1],"3.55 µM [falling, full curve]"
COc1ccc(C2CC(c3ccc4ccccc4c3)=NN2C(=O)CSc2ncccn2)cc1 (centres undefined),AC50,[1],"14.1 µM [rising, partial curve, poor fit]"
C=CCNC(=O)C1CCN(c2ccc(S(=O)(=O)N3CCOCC3)cc2Cl)CC1,AC50,[2],"7.08 µM [falling, partial curve, poor fit]"
same,AC50,[1],"12.6 µM [falling, partial curve, poor fit]"
CCOC(=O)c1ccc(Nc2nnc(C(C)(C)C)c(=O)[nH]2)cc1,AC50,[1],"35.5 µM [rising, single point]"
CN(C)CCNS(=O)(=O)c1ccc(N2CCN(c3ccc(F)cc3)CC2)c([N+](=O)[O-])c1,AC50,[2],"25.1 µM [rising, single point]"
same,AC50,[1],"25.1 µM [rising, single point]"
Cc1cccc(C)c1OCc1nnc(SCC(=O)Nc2nccs2)n1-c1ccccc1,AC50,[2],"3.98 µM [rising, single point]"
same,AC50,[1],"4.47 µM [rising, full curve, poor fit]"
CC[C@H](C)[C@H](NC(=O)c1ccc(Cl)cc1)C(=O)OCC(=O)c1ccc2c(c1)NC(=O)CO2,AC50,[2],"35.5 µM [falling, single point]"
same,AC50,[1],"28.2 µM [falling, single point]"
CC1CCN(S(=O)(=O)c2ccc(Cl)cc2Br)CC1,AC50,[1],"35.5 µM [rising, single point]"
Cc1ccc(NC(=O)Nc2cccc([N+](=O)[O-])c2)cc1F,AC50,[2],"17.8 µM [rising, partial curve]"
same,AC50,[1],"20 µM [rising, partial curve]"
NC1=NC(S)C2N=CN=C2N1 (centres undefined),AC50,[2],"5.01 µM [rising, full curve]"
same,AC50,[1],"0.0891 µM [rising, full curve, poor fit]"
CCC(C)NC(=O)CNC(=S)N(Cc1ccc(F)cc1)C1CCCCC1 (centres undefined),AC50,[2],"35.5 µM [falling, single point]"
same,AC50,[1],"35.5 µM [falling, single point]"
CSCCC(NS(=O)(=O)c1ccc(Cl)cc1)C(=O)OCC(=O)c1c(C)[nH]c2ccccc12 (centres undefined),AC50,[2],"2 µM [rising, single point]"
same,AC50,[1],"35.5 µM [falling, single point]"
Cc1cccc(-n2ncc3c(NCCCN4CCCC4=O)ncnc32)c1,AC50,[2],"0.178 µM [falling, partial curve]"
CC(C)CCNC(=O)CCCc1ccccc1,AC50,[2],"0.141 µM [rising, full curve, poor fit]"
same,AC50,[1],"0.158 µM [rising, full curve]"
COC(=O)c1sccc1S(=O)(=O)N(CC(=O)Nc1ccc(C)c(F)c1)c1ccc(C)c(C)c1,AC50,[2],"7.94 µM [falling, partial curve, poor fit]"
CCCNc1ncnc2c1c(-c1ccccc1)cn2-c1ccc(OCC)cc1,AC50,[2],"0.0141 µM [rising, full curve, poor fit]"
same,AC50,[1],"0.2 µM [rising, full curve, poor fit]"
COc1ccc(NC(=O)CCn2c(-c3ccc(F)cc3)cc(C(C)=O)c2C)c(OC)c1,AC50,[2],"0.01 µM [rising, full curve, poor fit]"
CCc1ccc(CNC(=O)c2sc3nc[nH]c(=O)c3c2C)cc1,AC50,[1],"0.0398 µM [falling, full curve, poor fit]"
O=C(c1ccc2c(c1)N(Cc1cccc(Cl)c1)C(=O)c1ccccc1S2(=O)=O)N1CCN(c2ccccn2)CC1,AC50,[2],"1 µM [falling, full curve]"
same,AC50,[1],"10 µM [rising, single point]"
C#CCOCCOCCOCCNc1nc(N2CCOCC2)nc(N2CCN(C(=O)[C@H]([C@@H](C)CC)n3cc(CCCCN)nn3)CC2)n1,AC50,[1],"0.0282 µM [rising, single point]"
C=CCNC(=S)N1CCN(c2ccc([N+](=O)[O-])cc2)CC1,AC50,[1],"0.0112 µM [rising, full curve, poor fit]"
CCc1c(C)nc(SCc2nc(-c3ccccc3C)no2)[nH]c1=O,AC50,[2],"35.5 µM [falling, single point]"
Cc1ccc(NC2=C(CC(=O)O)C(c3ccccc3)N(c3ccc(C)cc3)C2=O)cc1 (centres undefined),AC50,[1],"11.2 µM [rising, partial curve, poor fit]"
Cc1nnc(SC(C(=O)Nc2ccc(Cl)c([N+](=O)[O-])c2)c2ccccc2)[nH]c1=O (centres undefined),AC50,[2],"0.112 µM [falling, full curve, poor fit]"
same,AC50,[1],"0.00794 µM [falling, full curve, poor fit]"
CN(CC(=O)Nc1ccc(N2CCOCC2)cc1)C(=O)CC(c1ccccc1)c1ccccc1,AC50,[2],"1 µM [falling, full curve, poor fit]"
same,AC50,[1],"0.891 µM [falling, full curve, poor fit]"
COc1ccc(OC)c(CNc2ncnc3c2nc2n3CCCC2)c1,AC50,[1],"22.4 µM [rising, single point]"
Cc1oc(-c2ccc(Cl)cc2)nc1CN1CCCC(C(=O)NCc2ccccn2)C1 (centres undefined),AC50,[2],"14.1 µM [rising, single point]"
same,AC50,[1],"22.4 µM [rising, single point]"
Cc1cc(=O)oc2cc(OCC(=O)NCCCN3CCOCC3)ccc12,AC50,[1],"6.31 µM [falling, single point]"
CCOC(=O)c1csc(NC(=O)c2ccc(S(=O)(=O)N(C)C)cc2)n1,AC50,[2],"12.6 µM [rising, partial curve, poor fit]"
same,AC50,[1],"12.6 µM [rising, partial curve]"
COc1cc(S(=O)(=O)N2CCN(C(=O)c3ccccc3)CC2)c(OC)cc1Br,AC50,[1],"0.00447 µM [falling, full curve, poor fit]"
CC(C)Oc1ccccc1C1CC(=O)Nc2cc3c(cc21)OCCO3 (centres undefined),AC50,[1],"2.51 µM [rising, full curve]"
Cc1ccccc1N/C(SCc1ccc(Cl)cc1)=C(/C#N)C(N)=O,AC50,[2],"35.5 µM [rising, single point]"
same,AC50,[1],"35.5 µM [rising, single point]"
CC(=O)c1ccc(NC(=O)CSc2nccn2CCc2ccccc2)cc1,AC50,[1],"31.6 µM [rising, single point]"
O=S(=O)(Nc1cc2nc3ccccc3nc2n1Cc1ccccc1)c1ccc(Cl)cc1,AC50,[2],"7.08 µM [rising, full curve]"
same,AC50,[1],"12.6 µM [rising, partial curve]"
C=CCN1c2ccccc2[C@]23C[C@@H](C(=O)OC)N(C(=O)COCc4ccccc4)C2=NC(C(=O)OC)=C(C(=O)OC)[C@H]13,AC50,[2],"0.891 µM [rising, single point]"
CN1CCCC1CCOC(C)(c1ccccc1)c1ccc(Cl)cc1 (centres undefined),AC50,[2],"5.01 µM [falling, full curve, poor fit]"
same,AC50,[1],"4.47 µM [falling, full curve]"
CC1=C(c2ccc(Cl)cc2)S(=O)(=O)N=C1N1CCC(C(=O)NCCc2ccco2)CC1,AC50,[1],"1.12 µM [falling, partial curve]"
Cc1nc(SCc2nc3ccccc3[nH]2)c2oc3ccccc3c2n1,AC50,[2],"10 µM [falling, single point]"
CCn1c(=S)[nH]c2sc3c(c2c1=O)CCCCC3,AC50,[1],"7.08 µM [rising, partial curve, poor fit]"
CCCCNc1c2c3c(cccc3n(C)c1=O)C(=O)c1ccccc1-2,AC50,[2],"15.8 µM [falling, single point]"
same,AC50,[1],"15.8 µM [falling, single point]"
CCOc1cc(CNc2ncn[nH]2)ccc1OCC(=O)NC(C)(C)C,AC50,[2],"35.5 µM [falling, single point]"

# Pulled one by one from above:
structure (smiles),measurement,setting,value
CCC(C)NC(=O)CNC(=S)N(Cc1ccc(F)cc1)C1CCCCC1 (centres undefined),AC50,[1],"35.5 µM [falling, single point]"
COc1ccccc1CNS(=O)(=O)c1ccc2c(c1)CC(C)N2C(=O)C1CCC1 (centres undefined),AC50,[1],"3.55 µM [falling, full curve]"
